PubChem BioAssay AID1259254, NCATS | 2017

Assay: 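Genome-wide screen for genes that prevent DNA re-replication in cancer cells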 (primary screen)
System: human HCT116 colorectal cancer cells
Reagent: single siRNA against human genes
Duration: 3 days
Detection: 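Nuclei stained with Hoechst and imaged; cell-cycle phase assigned by DNA content; G2 share scaled per plate, non-targeting siRNA 0%, GMNN siRNA 100%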
Scale: G2 robust z-score and G2 cells, % of GMNN control: higher = more G2 cells, more excess DNA replication; raw share of cells in G2: higher = larger share of cells with G2 DNA content
Hit rule: 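Active siRNAs have a G2 robust z of 5 or more median absolute deviations over the median, which in these data means about 38% or higher of GMNN control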
The whole screen tested about 59,000 reagents; shown is an unselected part. About 1,550 of all reagents (2.6%) count as active. 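G2 share is only a proxy for re-replication; each gene was hit by three separate siRNAs, and active genes were retested.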 The raw values are shown without normalisation. The numbers tell different reagents against one gene apart. Not stated in the record: the amount of reagent.

target gene	reagent no.	G2 robust z-score	G2 cells, % of GMNN control	raw share of cells in G2 (%)	Call
LIPE (lipase E, hormone sensitive type)	1	5	38.1	20.1	inactive
LIPE (lipase E, hormone sensitive type)	2	-1.26	-5.86	1.26	inactive
LIPE (lipase E, hormone sensitive type)	3	-1.12	-4.88	3.54	inactive
GPHRA (golgi pH regulator A)	1	-0.896	-3.34	1.79	inactive
GPHRA (golgi pH regulator A)	2	-0.497	-0.528	3.09	inactive
GPHRA (golgi pH regulator A)	3	1.47	13.3	8.08	inactive
UBE2M (ubiquitin conjugating enzyme E2 M)	1	1.91	16.4	11	inactive
UBE2M (ubiquitin conjugating enzyme E2 M)	2	0.9	9.3	8.04	inactive
UBE2M (ubiquitin conjugating enzyme E2 M)	3	0.182	4.25	6.47	inactive
MIR550A3HG (MIR550A3 host gene)	1	1.4	12.8	8.61	inactive
MIR550A3HG (MIR550A3 host gene)	2	-0.12	2.12	4.01	inactive
MIR550A3HG (MIR550A3 host gene)	3	0.533	6.72	5.18	inactive
SRXN1 (sulfiredoxin 1)	1	-0.414	0.0568	3.85	inactive
SRXN1 (sulfiredoxin 1)	2	1.3	12.1	6.64	inactive
SRXN1 (sulfiredoxin 1)	3	-0.444	-0.154	3.01	inactive
BBS12 (Bardet-Biedl syndrome 12)	1	0.00856	3.03	4.69	inactive
BBS12 (Bardet-Biedl syndrome 12)	2	-0.569	-1.04	2.61	inactive
BBS12 (Bardet-Biedl syndrome 12)	3	-0.547	-0.88	2.48	inactive
L1CAM (L1 cell adhesion molecule)	1	1.2	11.4	6.97	inactive
L1CAM (L1 cell adhesion molecule)	2	0.903	9.32	9.16	inactive
L1CAM (L1 cell adhesion molecule)	3	-0.393	0.199	5.44	inactive
TMEM74B (transmembrane protein 74B)	1	2.56	21	12.6	inactive
TMEM74B (transmembrane protein 74B)	2	-0.216	1.45	4.74	inactive
TMEM74B (transmembrane protein 74B)	3	1.18	11.3	6.74	inactive
MLIP (muscular LMNA interacting protein)	1	-0.531	-0.77	3.76	inactive
MLIP (muscular LMNA interacting protein)	2	-0.327	0.664	3.21	inactive
MLIP (muscular LMNA interacting protein)	3	-0.394	0.193	2.99	inactive
PRG2 (proteoglycan 2, pro eosinophil major basic protein)	1	0.444	6.09	7.56	inactive
PRG2 (proteoglycan 2, pro eosinophil major basic protein)	2	-0.296	0.882	4.57	inactive
PRG2 (proteoglycan 2, pro eosinophil major basic protein)	3	0.00498	3	4.44	inactive
CTDSPL2 (CTD small phosphatase like 2)	1	-0.828	-2.86	2.58	inactive
CTDSPL2 (CTD small phosphatase like 2)	2	1.49	13.5	9.94	inactive
CTDSPL2 (CTD small phosphatase like 2)	3	0.263	4.82	4.78	inactive
ASPNAT (aspartate N-acetyltransferase)	1	6.25	47	26.2	active
ASPNAT (aspartate N-acetyltransferase)	2	-0.408	0.0969	5	inactive
ASPNAT (aspartate N-acetyltransferase)	3	-0.505	-0.582	4.07	inactive
OSBPL7 (oxysterol binding protein like 7)	1	0.427	5.97	8.44	inactive
OSBPL7 (oxysterol binding protein like 7)	2	-0.645	-1.57	4.29	inactive
OSBPL7 (oxysterol binding protein like 7)	3	-0.202	1.55	5.06	inactive
IQCK (IQ motif containing K)	1	-0.68	-1.82	3.36	inactive
IQCK (IQ motif containing K)	2	-0.202	1.54	3.79	inactive
IQCK (IQ motif containing K)	3	0.0124	3.05	2.71	inactive
MRPL10 (mitochondrial ribosomal protein L10)	1	-0.425	-0.0257	1.81	inactive
MRPL10 (mitochondrial ribosomal protein L10)	2	-0.15	1.91	4.86	inactive
MRPL10 (mitochondrial ribosomal protein L10)	3	1.58	14.1	7.54	inactive
CYP4B1 (cytochrome P450 family 4 subfamily B member 1)	1	0.0234	3.13	6.14	inactive
CYP4B1 (cytochrome P450 family 4 subfamily B member 1)	2	0.478	6.33	6.28	inactive
CYP4B1 (cytochrome P450 family 4 subfamily B member 1)	3	2.37	19.7	12	inactive

Individual results from the entries so far.
Value of MIR550A3HG (MIR550A3 host gene) #3 in “G2 robust z-score”: 0.533
For “G2 cells, % of GMNN control”, TMEM74B (transmembrane protein 74B) #1 has 21
For “raw share of cells in G2 (%)”, CYP4B1 (cytochrome P450 family 4 subfamily B member 1) #3 has 12
Result for BBS12 (Bardet-Biedl syndrome 12) #1 in “G2 robust z-score”: 0.00856
LIPE (lipase E, hormone sensitive type) #2, raw share of cells in G2 (%) = 1.26
CYP4B1 (cytochrome P450 family 4 subfamily B member 1) #2, Call = inactive
